{
  "source": "the supplement of paper PMC8728848",
  "binders": {"B1": {"name": "PX14379D-pdi-530-26-530 (Parabacteroides distasonis) (protein)", "chain": "DETVYDKLPADDFGQSTAELNALIGNSHNTMKKFWTEYMHLSECSGSMAVTPTRRGGDWYDGGQYREIYMHTWTSQTSRVKSAWKAATEAIGTCNEAIRKLQNSEILTEEEKAQDVADLRGVRAFWIYVMMDYWGNIPLLTEFHPTDKVFPGNSSRQEVFDWLIQEVEEIKDICPPATTENYGSFTQGAAYSLLAKLYLNAEAWGVTFSGNAYQKVIDNCDKVMAMGYILEPNWKDNFSVTNENSKEAILAATFSSSDTGNDGNVKNELHNNTLHYKDYLSLGITASGTWNGICAQPEYVRLFDEEDARLDGTFLTGLMIDKSTGKPIMTDHNNELNHTIDVNMIPGMEYDGTNWSAVEQHDGARCFKWEFASDLTSSMGNDFHIFRLADIYLMKAEALLRGGGSVSEATALVNTIRERGYGNSDHNYATVTLKEVQLERRLELAWEVYSRQDDIRFGCFTTGMWPQSNCERKADDYLKLLPVSQDAWQVNPNLKQNPGYAAFSK"}},
  "assay_in_all_cases": "glycan array binding signal (z-score within array); higher = stronger binding",
  "conditions_in_all_cases": "glycan notation: IUPAC condensed, linker removed",
  "key": {"[1]": {"biological_target": "Fuc(a1-2)[GalNAc(a1-3)]Gal(b1-4)GlcNAc(b1-3)Gal(b1-4)GlcNAc(b1-3)Gal(b1-4)GlcNAc", "outline": "(§1)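 The Consortium for Functional Glycomics database supplied 3228 glycan arrays, of which those lacking an available protein sequence were dropped. The binding signal, a within-array Z-score, was averaged across arrays of the same protein sequence and across linkers. Negative scores can be read as non-binding.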"}, "[2]": {"biological_target": "Fuc(a1-2)[GalNAc(a1-3)]Gal(b1-4)GlcNAc(b1-3)GalNAc", "outline": "as §1"}, "[3]": {"biological_target": "Fuc(a1-2)[GalNAc(a1-3)]Gal(b1-4)GlcNAc(b1-3)[Fuc(a1-2)[GalNAc(a1-3)]Gal(b1-4)GlcNAc(b1-6)]GalNAc", "outline": "as §1"}, "[4]": {"biological_target": "Fuc(a1-2)[GalNAc(a1-3)]Gal(b1-4)GlcNAc(b1-6)GalNAc", "outline": "as §1"}, "[5]": {"biological_target": "Fuc(a1-2)[GalNAc(a1-3)]Gal(b1-4)[Fuc(a1-3)]GlcNAc", "outline": "as §1"}, "[6]": {"biological_target": "Fuc(a1-2)[GalNAc(a1-3)]Gal(b1-4)[Fuc(a1-3)]GlcNAc(b1-3)GalNAc", "outline": "as §1"}, "[7]": {"biological_target": "Fuc(a1-2)[GalNAc(a1-4)]Gal(b1-4)GlcNAc", "outline": "as §1"}, "[8]": {"biological_target": "Fuc(a1-2)[GalNAc(b1-3)]Gal", "outline": "as §1"}, "Fuc(a1-3)GlcNAc": {"biological_target": "Fuc(a1-3)GlcNAc", "outline": "as §1"}, "[9]": {"biological_target": "Fuc(a1-3)[Gal(b1-4)]Glc6S", "outline": "as §1"}, "[10]": {"biological_target": "Fuc(a1-3)[Gal(b1-4)]GlcNAc", "outline": "as §1"}, "[11]": {"biological_target": "Fuc(a1-3)[Gal(b1-4)]GlcNAc(b1-2)Man", "outline": "as §1"}, "[12]": {"biological_target": "Fuc(a1-3)[Gal(b1-4)]GlcNAc(b1-2)Man(a1-3)[Fuc(a1-3)[Gal(b1-4)]GlcNAc(b1-2)Man(a1-6)]Man(b1-4)GlcNAc(b1-4)GlcNAc", "outline": "as §1"}, "[13]": {"biological_target": "Fuc(a1-3)[Gal(b1-4)]GlcNAc(b1-2)Man(a1-3)[Fuc(a1-3)[Gal(b1-4)]GlcNAc(b1-2)Man(a1-6)]Man(b1-4)GlcNAc(b1-4)[Fuc(a1-6)]GlcNAc", "outline": "as §1"}, "[14]": {"biological_target": "Fuc(a1-3)[Gal(b1-4)]GlcNAc(b1-3)Gal(b1-3)[Fuc(a1-4)]GlcNAc", "outline": "as §1"}, "[15]": {"biological_target": "Fuc(a1-3)[Gal(b1-4)]GlcNAc(b1-3)Gal(b1-4)[Fuc(a1-3)]GlcNAc", "outline": "as §1"}, "[16]": {"biological_target": "Fuc(a1-3)[Gal(b1-4)]GlcNAc(b1-3)Gal(b1-4)[Fuc(a1-3)]GlcNAc(b1-3)Gal(b1-4)[Fuc(a1-3)]GlcNAc", "outline": "as §1"}, "[17]": {"biological_target": "Fuc(a1-3)[Gal(b1-4)]GlcNAc(b1-3)GalNAc", "outline": "as §1"}, "[18]": {"biological_target": "Fuc(a1-3)[Gal(b1-4)]GlcNAc(b1-6)GalNAc", "outline": "as §1"}, "[19]": {"biological_target": "Fuc(a1-3)[Gal(b1-4)]GlcNAc(b1-6)[Gal(b1-3)GlcNAc(b1-3)]Gal(b1-4)Glc", "outline": "as §1"}, "[20]": {"biological_target": "Fuc(a1-3)[Gal(b1-4)]GlcNAc6S", "outline": "as §1"}, "[21]": {"biological_target": "Fuc(a1-3)[Gal3S(b1-4)]Glc", "outline": "as §1"}, "[22]": {"biological_target": "Fuc(a1-3)[Gal3S(b1-4)]GlcNAc", "outline": "as §1"}},
  "note": "The list shows a part of the results.",
  "data": [
    {"binder": "B1", "values": [
      {"measurement": "glycan array binding signal (z-score)", "setting": "[1]", "result": -0.472},
      {"measurement": "glycan array binding signal (z-score)", "setting": "[2]", "result": 1.29},
      {"measurement": "glycan array binding signal (z-score)", "setting": "[3]", "result": -0.832},
      {"measurement": "glycan array binding signal (z-score)", "setting": "[4]", "result": 0.293},
      {"measurement": "glycan array binding signal (z-score)", "setting": "[5]", "result": -0.843},
      {"measurement": "glycan array binding signal (z-score)", "setting": "[6]", "result": 0.236},
      {"measurement": "glycan array binding signal (z-score)", "setting": "[7]", "result": -0.676},
      {"measurement": "glycan array binding signal (z-score)", "setting": "[8]", "result": -0.623},
      {"measurement": "glycan array binding signal (z-score)", "setting": "Fuc(a1-3)GlcNAc", "result": -0.715},
      {"measurement": "glycan array binding signal (z-score)", "setting": "[9]", "result": 1.74},
      {"measurement": "glycan array binding signal (z-score)", "setting": "[10]", "result": -0.689},
      {"measurement": "glycan array binding signal (z-score)", "setting": "[11]", "result": -0.326},
      {"measurement": "glycan array binding signal (z-score)", "setting": "[12]", "result": 0.394},
      {"measurement": "glycan array binding signal (z-score)", "setting": "[13]", "result": 1.42},
      {"measurement": "glycan array binding signal (z-score)", "setting": "[14]", "result": -0.965},
      {"measurement": "glycan array binding signal (z-score)", "setting": "[15]", "result": 0.562},
      {"measurement": "glycan array binding signal (z-score)", "setting": "[16]", "result": -0.534},
      {"measurement": "glycan array binding signal (z-score)", "setting": "[17]", "result": -0.125},
      {"measurement": "glycan array binding signal (z-score)", "setting": "[18]", "result": 0.622},
      {"measurement": "glycan array binding signal (z-score)", "setting": "[19]", "result": -0.281},
      {"measurement": "glycan array binding signal (z-score)", "setting": "[20]", "result": 1.23},
      {"measurement": "glycan array binding signal (z-score)", "setting": "[21]", "result": -0.37},
      {"measurement": "glycan array binding signal (z-score)", "setting": "[22]", "result": -0.25}
    ]}
  ]
}
